# Assay results from paper PMC7819943, “Rice protein-binding microarrays: a tool to detect cis-acting elements near promoter regions in rice”.
# By UniProt entry, the sequences of proteins in these tests, tags left out.
# UniProt Q0JBA9, entry or part of it: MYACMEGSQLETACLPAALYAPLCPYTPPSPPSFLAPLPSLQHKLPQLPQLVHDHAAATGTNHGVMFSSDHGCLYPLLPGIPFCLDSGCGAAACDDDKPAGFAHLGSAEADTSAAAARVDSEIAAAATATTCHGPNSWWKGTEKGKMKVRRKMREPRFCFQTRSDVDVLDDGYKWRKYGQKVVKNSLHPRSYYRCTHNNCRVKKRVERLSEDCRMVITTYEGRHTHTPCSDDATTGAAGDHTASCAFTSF
# The other results are listed elsewhere or left out.
# Target: OsWRKY34 (Oryza sativa, UniProt Q0JBA9 1-250)
# Experiment: protein-binding microarray (RPBM); PBS, 2% BSA, 51.3 ng/ul salmon testes DNA, 50 uM zinc acetate, 200 nM TF, 25 C, 1 h; high values mean tight binding
# Conditions: protein: recombinant; tags: N-terminal polyhistidine and DsRed monomer fusion (pET32a); label: CyDye5-dUTP incorporated in the synthesized complementary strand; 3' TTTTT single-stranded linker to array surface; dsDNA, one strand shown
# Summary of the method: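 The binding signal is fluorescence intensity per array feature (arbitrary units). Readings came from an Axon 4000B scanner after a washed, 2% BSA-blocked, double-stranded custom Agilent array had been incubated for 1 h at 25 °C with 200 nM protein and 50 µM zinc acetate. The protein was a Ni–NTA-purified transcription factor fused N-terminally to polyhistidine and DsRed, expressed in E. coli BL21-CodonPlus.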
row,Sequence,binding signal
1,TTTCACGTTTCGGCGCCATTTCGCCTTCTTCTTCACCTGGCGGAGTCACCTAGTGCAG,8450 fluorescence intensity (a.u.)
2,AATTTTTTCCCACCACCTCCTTTCAAATTTTTTTATCTCCCGGAGTCACCTAGTGCAG,9230 fluorescence intensity (a.u.)
3,CTGGTTGTGTGTTGGAGAATTTAAGCTCCTATGTGGAAAACGGAGTCACCTAGTGCAG,9670 fluorescence intensity (a.u.)
4,TCGTTCGTTGGTTTGTTTTTTTTTTCTTTTCTCGCGTACACGGAGTCACCTAGTGCAG,11600 fluorescence intensity (a.u.)
5,ACCACCAGCTTTGCTCCCGCTAGTTCCCGCTGATCGATCTCGGAGTCACCTAGTGCAG,9180 fluorescence intensity (a.u.)
6,GTATTTCTCTTCGATACGGATATACACTACCGCCACCGTTCGGAGTCACCTAGTGCAG,8380 fluorescence intensity (a.u.)
7,AAAATTTTTACTACCACCTCTACATCCCGCAAGCATCTCCCGGAGTCACCTAGTGCAG,8550 fluorescence intensity (a.u.)
8,TATAATATTATCAAACCAGGACTCCATGCCGTTCCATAATCGGAGTCACCTAGTGCAG,8200 fluorescence intensity (a.u.)
9,TCCATCAGGTTGCAGTTGGTTCCATGTACAATCTTTCTTTCGGAGTCACCTAGTGCAG,8060 fluorescence intensity (a.u.)
10,ATGACTTACCTTCTACATGTTGACTTTCAGGAGTGACTGTCGGAGTCACCTAGTGCAG,8650 fluorescence intensity (a.u.)
11,CTCCGCCTGCCTGCTCTAGCCGCTTGCCGCACCACGCTCTCGGAGTCACCTAGTGCAG,9670 fluorescence intensity (a.u.)
12,ATTTTGCAAATCTCTCATTTATATATATCCATATACATATCGGAGTCACCTAGTGCAG,9090 fluorescence intensity (a.u.)
13,CCAATTTAATTTCTATGGCTTGATTTCCTCTTTGGCACAACGGAGTCACCTAGTGCAG,8050 fluorescence intensity (a.u.)
14,TATGGGCGCGGTTTCGATTCCTCACAATGGCTGCCTTTGTCGGAGTCACCTAGTGCAG,9510 fluorescence intensity (a.u.)
15,GACTCTGTGCGCTCCATGTCATCCATCGTGCGGCCCACGTCGGAGTCACCTAGTGCAG,9310 fluorescence intensity (a.u.)
16,GCTGATGCTCTGTTTGTATTTTTTTTCCATTTTAGTACGTCGGAGTCACCTAGTGCAG,11200 fluorescence intensity (a.u.)
17,ACGAAGACTAAGTCAACAAACCATATAGGCACCACGTTAACGGAGTCACCTAGTGCAG,8780 fluorescence intensity (a.u.)
18,TATCAATAGGTGTTTTCACTTGCTTATACTTTCAATTACACGGAGTCACCTAGTGCAG,8490 fluorescence intensity (a.u.)
19,AAACAAACACAGAGCTTCTCTCCTCTGTTCTCCTTCTCTGCGGAGTCACCTAGTGCAG,8090 fluorescence intensity (a.u.)
20,CAAATATCCGATGAGGCACCCAAAAATTTTCTTTTCGCGACGGAGTCACCTAGTGCAG,8710 fluorescence intensity (a.u.)
21,TGATCATCTATGCATTTCAAGATTAGCGTTGACTTGGAAACGGAGTCACCTAGTGCAG,10600 fluorescence intensity (a.u.)

row,Sequence,binding signal
1,TCACTGACATATGGGCCCCATATATTTATTTTATTATTTTCGGAGTCACCTAGTGCAG,8170 fluorescence intensity (a.u.)
2,TTCCCTTTTTCTTCCTTTTCTCTCTTTTCTCAGCCGCTACCGGAGTCACCTAGTGCAG,8170 fluorescence intensity (a.u.)
3,TATCTACAGTACTTTAAACACAACTTTTCGTTTTTTATATCGGAGTCACCTAGTGCAG,9420 fluorescence intensity (a.u.)
4,TATTACGTTACTTAGCGGCCCGAACTTGGATAACTCCCTACGGAGTCACCTAGTGCAG,8480 fluorescence intensity (a.u.)
5,AACAAAATAATTTCGGTTTTGCAAAATTTTCATGGTTTTCCGGAGTCACCTAGTGCAG,8540 fluorescence intensity (a.u.)
6,TTGATATCCATCTGCCTATTGGCCATTCCTCTAGGCACTCCGGAGTCACCTAGTGCAG,8420 fluorescence intensity (a.u.)
7,CATCCATCTCCTTGCCCTTATCCGATCGCTATTAGAGCTCCGGAGTCACCTAGTGCAG,9930 fluorescence intensity (a.u.)
8,TCCGCCTCTCGCGTCGTCGTTTCCACAGTACTACTACAGTCGGAGTCACCTAGTGCAG,10100 fluorescence intensity (a.u.)
9,TGGGCGGTTAATTTGACTTCGATGTTCAGTACCTTGTGGGCGGAGTCACCTAGTGCAG,12300 fluorescence intensity (a.u.)
10,GCTCATCTTTCAGCAGCATCGACAGCCTCAGACGCTCCTCCGGAGTCACCTAGTGCAG,8800 fluorescence intensity (a.u.)
11,GCTATTCCTGTCTTTACCTCATCTTTCTACAATCCACATCCGGAGTCACCTAGTGCAG,10100 fluorescence intensity (a.u.)
12,ATGATTTCTTGCCTCGGACAGCCACTCCTTTAGAAGACATCGGAGTCACCTAGTGCAG,9000 fluorescence intensity (a.u.)
13,CATGATTCTTACCAAGCTTTTTTTCCCGGTCAACTAGTAACGGAGTCACCTAGTGCAG,9340 fluorescence intensity (a.u.)
14,CCATTTCCGACGAAATTTCTGAAAACTGTTTACTACGTCCCGGAGTCACCTAGTGCAG,9170 fluorescence intensity (a.u.)
15,CGCTCGACTTCTCTTCTCTCATACACGTGTCATTAAATTTCGGAGTCACCTAGTGCAG,11500 fluorescence intensity (a.u.)
16,TTACACTTGCATTCCTATCCAAATCCTATGTTTTCTCAATCGGAGTCACCTAGTGCAG,13400 fluorescence intensity (a.u.)
17,TCTCTCCTCTATATTATCGCCGACGCGCGCGCGCCACTGCCGGAGTCACCTAGTGCAG,9370 fluorescence intensity (a.u.)
18,ATCGGATCTATGTTTTTTTTTCTATTTTTTTTGCCGCTTTCGGAGTCACCTAGTGCAG,8430 fluorescence intensity (a.u.)
19,TAAGGTTTCTTCTGGGATCATTACATATACCTATATGGTTCGGAGTCACCTAGTGCAG,8100 fluorescence intensity (a.u.)
20,GCAATTTCTCACCGGACCATCGCTTGGCCTCGAAGCATCTCGGAGTCACCTAGTGCAG,9440 fluorescence intensity (a.u.)
21,TCACCTTTTGTTTAATAATCACATGTCTTTGTACTATTTTCGGAGTCACCTAGTGCAG,11100 fluorescence intensity (a.u.)

# 2 entries from above, reformatted.
row	Sequence	binding signal
2	TTCCCTTTTTCTTCCTTTTCTCTCTTTTCTCAGCCGCTACCGGAGTCACCTAGTGCAG	8170 fluorescence intensity (a.u.)
9	TGGGCGGTTAATTTGACTTCGATGTTCAGTACCTTGTGGGCGGAGTCACCTAGTGCAG	12300 fluorescence intensity (a.u.)
